According to PubChem BioAssay AID624291 (National Center for Advancing Translational Sciences (NCATS), 2012):
Among all 350,000 compounds or so, about 220 (0.063%) were called active. Inconclusive means that the source gave no clear call. Such entries were picked first, then a sample of the others. Calls follow the shape of the dose curve; as a rule, active = well fitted activation curve with a large enough effect; inconclusive = small, poorly fitted or top-dose-only effect; inactive = no such curve, though single readings can be large or run the other way. Where the call is inconclusive, the potency comes from a doubtful curve fit.

Test: qHTS for Activators of Integrin-Mediated Alleviation for Muscular Dystrophy; also: nearly all actives have a fitted effect of over 60% in size;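 as to activation: 100% = response of the positive control SU9516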
Settings: alpha7betagal myoblasts, beta-gal FDG fluorescence, 48 h; activation: at 38.3 µM (top of the series)
Procedure, shortened: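 Alpha7betagal+/- myoblasts (passage 13) were plated 16-24 hr, then exposed to compounds (1:260 dilution of DMSO stock) for 48 hours at 37C. After MPER lysis, β-galactosidase reporter activity was read as FDG fluorescence (ex 480/em 540) after 30 minutes.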
Potency is read from the fitted curve at half-maximal effect.

SMILES	Potency	activation
CCN(C(=O)c1cc(S(=O)(=O)N2CCCC2)ccc1C)C1CCS(=O)(=O)C1 (centres undefined)	inconclusive: 8.91 µM [activator, partial curve, poor fit]	–
O=C(c1ccc(Cl)cc1)N1CCN(S(=O)(=O)/C=C/c2ccccc2)CC1	inconclusive: 3.55 µM [activator, partial curve, poor fit]	–
CCNC(=S)Nc1cc(C)ccn1	inactive	–
S=c1[nH]nc(-c2ccccc2)n1/N=C/c1cccc(Cl)c1	inconclusive: 5.01 µM [activator, single point]	–
CCOC(=O)C1=C(COC(=O)CNC(=O)c2ccc(C)cc2)NC(=O)NC1C (centres undefined)	inconclusive: 2.24 µM [activator, single point]	–
COc1ccccc1C(=O)NCC(=O)OCC(=O)Nc1nnc(-c2ccccc2)o1	inconclusive: 1.58 µM [activator, single point]	–
CCOC(=O)c1nc(C)nc(Sc2n[nH]c(-c3cc(C(F)(F)F)cc(C(F)(F)F)c3)n2)c1C	inconclusive: 28.2 µM [activator, single point]	–
CCC(C)NC(=O)c1cc(-c2cccs2)nc2ccccc12 (centres undefined)	inconclusive: 2 µM [activator, partial curve, poor fit]	–
NCC(O)CN1CCN(Cc2ccccc2)CC1 (centres undefined)	inconclusive: 2.82 µM [activator, single point]	–
C[c-]1[c-](C)[c-](C)[c-](C)[c-]1C.[Fe].c1cc2nccc(N3CCCC3)[c-]2c1 (centres undefined)	inactive	–
CCOC(=O)C1(CCCc2ccccc2)CCN(Cc2nccn2CC)CC1	inactive	–
O=C(CCCCl)NC1=NN(c2ccccc2)C(=O)C1	inconclusive: 10 µM [activator, partial curve, poor fit]	–
O=C(NCCN1CCOCC1)c1ccc(Cl)c(S(=O)(=O)N2CCOCC2)c1	inconclusive: 3.55 µM [activator, single point]	–
Cc1cccc(N2CCN(S(=O)(=O)c3ccc4c(c3)OCCO4)CC2)c1C	inconclusive: 3.16 µM [activator, single point]	–
CCN1CCN(C(=O)C2CCN(S(=O)(=O)c3ccc(Br)cc3)CC2)CC1	inactive	–
CC(C)(C)c1ccc(CCC(CC(=O)O)CC(=O)O)cc1	inconclusive: 5.62 µM [activator, partial curve, poor fit]	–
Cc1cccc(-n2c(SCc3ccc([N+](=O)[O-])cc3)nnc2-c2c[nH]c3ccccc23)c1	inconclusive: 10 µM [activator, partial curve, poor fit]	–
O=S1(=O)[C@H]2C[C@H](CO)O[C@@]2(CO)CN1Cc1ccc(-c2cccc(Cl)c2)cc1	inactive	–
CCOC(=O)CNC(=O)CSc1nnc(COc2ccc(Cl)cc2)n1CC	inconclusive: 10 µM [activator, partial curve]	–
O=C(N/N=C/c1ccc(N2CCOCC2)s1)c1ccc(NS(=O)(=O)c2cccs2)cc1	inconclusive: 3.16 µM [activator, partial curve, poor fit]	–
COc1ccc(CN2C(=O)c3ccccc3C2C(=O)NC2CCCCCC2)c(OC)c1 (centres undefined)	inconclusive: 14.1 µM [activator, single point]	–
CCOC(=O)C1(Cc2ccccc2C)CCCN(C(=O)c2ccc(CSC)o2)C1 (centres undefined)	inconclusive: 5.01 µM [activator, single point]	–

SMILES	Potency	activation
O=C(NCc1ccc(/C=N\NC(=O)C(=O)Nc2ccccc2Br)o1)C(=O)Nc1ccccc1	inconclusive: 5.01 µM [activator, single point]	–
Cc1[nH]c2ccccc2c1CN1CCC(CO)(Cc2ccccc2)CC1	inconclusive: 5.01 µM [activator, single point]	–
Cc1ccc(NCc2n[nH]c(=S)n2-c2cccc(Cl)c2)cc1	inactive	–
N#Cc1ccc(N2CCc3ccccc3C2)c([N+](=O)[O-])c1	inconclusive: 31.6 µM [activator, partial curve, poor fit]	–
Cn1c(=O)cc(OCC(=O)N2CCN(c3ccccc3F)CC2)c2ccccc21	inconclusive: 5.01 µM [activator, single point]	–
CCOc1cc(/C=N/O)ccc1OCc1ccc(F)cc1	inconclusive: 28.2 µM [activator, single point]	–
CCC(=O)N1CCc2cc(Br)cc(S(=O)(=O)N3CCCCC3CC)c21 (centres undefined)	inactive	–
CC1(CCBr)C(=O)N(c2ccccc2)c2ccccc21 (centres undefined)	inconclusive: 5.01 µM [activator, single point]	–
CCN1c2ccccc2S(=O)(=O)c2ccccc21	inconclusive: 2.24 µM [activator, single point]	–
Cc1csc(CN(C)C(=O)C2CCC(=O)N(CCCc3ccccc3)C2)n1 (centres undefined)	inconclusive: 1.12 µM [activator, partial curve, poor fit]	–
COc1ccc(CCC(=O)Nc2ncc(C)s2)cc1OC	inactive	–
COC(=O)c1ccc(CSc2nc3sc(C)c(C)c3c(=O)[nH]2)cc1	inconclusive: 5.62 µM [activator, partial curve, poor fit]	–
COc1ccccc1CN(C(=O)Cc1cccs1)C(C(=O)NC1CCCC1)c1ccncc1 (centres undefined)	inconclusive: 4.47 µM [activator, partial curve, poor fit]	–
CC1CC(C)CN(C(=O)CNS(=O)(=O)c2cccs2)C1 (centres undefined)	inconclusive: 0.316 µM [activator, partial curve, poor fit]	–
c1ccc(SCCN2CCN(c3ccccc3)CC2)cc1	inconclusive: 1.58 µM [activator, partial curve, poor fit]	–
O=C1CCC(C(=O)N2CCCC2)CN1Cc1cccc(C(F)(F)F)c1 (centres undefined)	inconclusive: 5.01 µM [activator, single point]	–
O=C(NCCCN1CCCC1)c1ccc(CS(=O)(=O)c2ccc(Cl)cc2)o1	inconclusive: 28.2 µM [activator, single point]	–
Cc1nn(CCCC(=O)NCCc2ccc(Cl)cc2)c(=O)c2nn(-c3ccccc3)c(C)c12	inconclusive: 5.01 µM [activator, single point]	–
CCN(CC)c1ccc(S(=O)(=O)N2CCOCC2)cc1NC(=O)Cn1nc(C)c([N+](=O)[O-])c1C	inconclusive: 28.2 µM [activator, single point]	–
CS(=O)(=O)N(Cc1cccc(CN(C(C(=O)O)c2ccccc2)S(C)(=O)=O)c1)C(C(=O)O)c1ccccc1 (centres undefined)	inactive	–
CCc1nc(-c2ccc(OC)c(OC)c2)cc2cc(OC)c(OC)cc12	inactive	–
O=C1C(=O)N(Cc2cccnc2)C(c2ccc(Br)cc2)/C1=C(\O)c1ccc2c(c1)OCCO2 (centres undefined)	inactive	–

Grouped by structure: the compounds so far containing a CF3 group (two)
SMILES	Potency	activation
CCOC(=O)c1nc(C)nc(Sc2n[nH]c(-c3cc(C(F)(F)F)cc(C(F)(F)F)c3)n2)c1C	inconclusive: 28.2 µM [activator, single point]	–
O=C1CCC(C(=O)N2CCCC2)CN1Cc1cccc(C(F)(F)F)c1 (centres undefined)	inconclusive: 5.01 µM [activator, single point]	–

Further structures.

SMILES	Potency	activation
COC(=O)c1ccccc1S(=O)(=O)N1CCC(NC(=O)c2ccccc2)CC1	inconclusive: 3.98 µM [activator, partial curve, poor fit]	–
Nn1c(C2CCC2)nc2ccccc2c1=O	inconclusive: 1.26 µM [activator, partial curve, poor fit]	–
CC(Oc1ccc(Cl)cc1)C(=O)N/N=C/c1ccsc1 (centres undefined)	inconclusive: 5.62 µM [activator, partial curve, poor fit]	–
O=C(CSc1ncn[nH]1)NCc1ccc2c(c1)OCO2	inconclusive: 5.01 µM [activator, single point]	–
Cc1ccc(C(=O)O)c(C(=O)Nc2nc3ccccc3s2)c1	inactive	–
c1ccc(-c2sc3ccccc3c2-c2ccc(OCCN3CCOCC3)cc2)cc1	inactive	–
COC(=O)CNC(=O)c1ccc(OC2CCN(C(=O)C3CC3)CC2)cc1	inconclusive: 14.1 µM [activator, single point]	–
CCOC(=O)C1CCN(Cc2cccc(Oc3ccccc3)c2)CC1	inconclusive: 10 µM [activator, partial curve, poor fit]	–
CCOc1ccc(CN2CCNC(=O)C2CC(=O)NCCc2nc(C)c3c(n2)CCC3)cc1 (centres undefined)	inconclusive: 1 µM [activator, full curve, poor fit]	–
O=C(NCc1cccnc1)c1ccccc1CCc1ccccc1	inconclusive: 10 µM [activator, partial curve, poor fit]	–
Nc1nc(-c2cccc(Br)c2)cs1	–	inactive: -3.5% [at 7.66 µM]
Cc1ccccc1C(=O)NC(NC(=O)c1ccccc1C)c1cccc([N+](=O)[O-])c1	inconclusive: 3.16 µM [activator, full curve, poor fit]	–
CC(Sc1nc(N)cc(N)n1)C(=O)NCCC1=CCCCC1 (centres undefined)	inconclusive: 0.501 µM [activator, partial curve, poor fit]	–
CCCC(=O)c1ccc(N2CCCCC2)c(F)c1	inconclusive: 28.2 µM [activator, single point]	–
NC(=O)C1CC(=O)N(c2ccc(OCC(=O)Nc3ccc(F)cc3)cc2)C1 (centres undefined)	inconclusive: 22.4 µM [activator, single point]	–
Cc1[nH]c2ccccc2c1CCCO	inconclusive: 2.82 µM [activator, single point]	–
O=C1CCS/C(=N\N=C\c2ccc(Cl)cc2Cl)N1	inconclusive: 5.01 µM [activator, single point]	–
O=C(CNC(=O)C1CCCCC1)OCC(=O)c1ccc(F)cc1	inconclusive: 2.51 µM [activator, single point]	–
CN(/N=C/c1ccccc1Cl)c1ncc(Cl)cc1C(F)(F)F	inconclusive: 3.16 µM [activator, single point]	–
COc1ccc2oc(=N)c(C(=O)Nc3ccc(Br)cc3)cc2c1	inconclusive: 12.6 µM [activator, single point]	–
